According to article PMC2944810:
These are yes or no findings as the source states them, for the method shown. Binding seen in cells or lysates may run through a third protein. Some binding calls cover weakened binding; strength is not graded here.

Sequences of proteins named here, by UniProt entry; tags and fusion partners are left off. Residues count along the entry.
UniProt Q8GXV7, residues 22-303: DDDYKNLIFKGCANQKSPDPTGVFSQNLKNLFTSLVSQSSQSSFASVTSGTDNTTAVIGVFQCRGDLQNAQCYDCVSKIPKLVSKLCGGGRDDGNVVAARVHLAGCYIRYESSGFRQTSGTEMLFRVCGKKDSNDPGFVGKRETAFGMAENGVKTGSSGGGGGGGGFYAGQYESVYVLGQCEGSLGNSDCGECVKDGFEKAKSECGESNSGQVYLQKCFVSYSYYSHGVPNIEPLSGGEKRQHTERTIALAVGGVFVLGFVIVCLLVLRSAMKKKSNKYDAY
UniProt P03545: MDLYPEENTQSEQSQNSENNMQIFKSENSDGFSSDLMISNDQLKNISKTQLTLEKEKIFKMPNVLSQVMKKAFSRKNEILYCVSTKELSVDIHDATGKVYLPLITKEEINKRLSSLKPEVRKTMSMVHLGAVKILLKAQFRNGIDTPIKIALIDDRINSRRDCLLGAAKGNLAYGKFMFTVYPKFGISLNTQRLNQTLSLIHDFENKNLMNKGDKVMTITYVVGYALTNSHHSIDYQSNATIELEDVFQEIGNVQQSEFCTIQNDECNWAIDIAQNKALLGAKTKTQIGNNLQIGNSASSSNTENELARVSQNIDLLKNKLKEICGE

Biological target: PDLP1:RFP (plasmodesmata-located protein 1 fused to RFP) (Arabidopsis thaliana) (UniProt Q8GXV7)
Experiment: FRET or BRET; FRET-FLIM in living N. benthamiana leaf epidermal cells after transient co-expression by agro-infiltration; GFP fusion of the movement protein as donor, RFP fusion as acceptor; fluorescence lifetime of the donor measured at tubules or plasmodesmata

In the case of “P1:GFP (Cauliflower mosaic virus movement protein P1 fused to GFP) (from UniProt P03545 1-327)”, the binding was “binds”.
